In all, about 53,000 sequences went through this assay and about 3,700 (7%) were called active.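 How the source made its calls: active means gene knockdowns whose robust z-score for IL-1 alpha signal is at least 2 or at most -2, so actives lie on both sides; inactive means the rest.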 This is one part of the list.

The assay is described as follows: Components of the Cytosolic LPS Sensing Pathway: Gene Identification via Genome-wide siRNA Screen.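 Further: robust z of the log signal after scaling to non-targeting control siRNA wells of the plate.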 The conditions noted are these: RAW264.7 macrophages, IL-1a HTRF, actives lie on both sides, screened at 100 nM (by protocol), cells primed 5 h with Pam3CSK4 first. The gist of the method:
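Using IL-1a HTRF as read-out, the screen measured release from RAW264.7 cells after 48h siRNA knockdown (100 nM), 5 h Pam3CSK4 priming and 24 h cytosolic LipidA. Values were expressed relative to negative-control wells as robust z-scores.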
Regarding GCGGCUCCAUCAGAAAAUGTT against Htatip2, the z-score is inactive: 0.526. The same measure for GCCUGUAAGAUACUGUACATT against Bbc3: inactive: 0.592. The same measure for CCACAGCUAAAGAAUCUUUTT against Spidr: inactive: -1.88; for CGAGGGUCUGAAAAAUUACTT against Ighg: inactive: 1.28.

Take GGAUAUUGAUGUUUCAAGUTT against Neo1: the z-score is inactive: -0.241. On to GGUGUUGAGAUCCACAAGGTT against Tceanc2, for which the z-score was active: -2.44. To CCACCUGACUUUUGGAAGATT against Coro1b belongs inactive: -1.8; to GGACCAUGUACAGGACUUUTT against Thap7, inactive: -1.08; to GGCCCAAGGAAUAAUCAAGTT against Satb2, active: 2.48. The same measure for GCAGUGAGACUUUUAAUAGTT against Snx17: inactive: 0.284; for GGAAAUGGCAAAUUCAACUTT against Vcan: inactive: 0.322; for GGUGGUGUAUUCUUUUUGATT against Ube2d3: inactive: -0.746. With GCUCCAAGUGUUAAAAGAGTT against Eif2ak1, the z-score is inactive: -0.127. To CCACCUACUACAGAUAUGCTT against Brwd1 belongs inactive: -0.0474. For the sequence GGAUUGUUUGUCGAGUUUATT against Mknk2, the z-score was inactive: 1.6. To GGUACUGAUUACUCUGUAUTT against Mrps17 belongs inactive: -0.388. To CCCUCAGUUUUACUGUUUATT against Pip4k2a belongs inactive: -0.422. The same measure for CCAAGUUUUAGCACCUAAATT against Dcp1a: inactive: 0.769; for GGAGAUCGAAAAGAAUUUCTT against Mx2: inactive: 1.17.

For GGACCUGUAGCUAGCUUCUTT against Adamts10, the z-score was inactive: -1.66. GGUUCUGUCUUUUGGAAGUTT against Gpr21: the z-score is inactive: -1.39. As to GGCCAAAGUGUUGAAAACATT against Ptger4, the z-score is inactive: 0.835. To GGUUCAUGAUGGAUGACAUTT against Bmerb1 belongs inactive: -1.96.

Turning to CGUUCGAGUUGCUGAGCAUTT against Dyrk2, the z-score was inactive: 0.231. The same measure for CCAUCACCACUUACCUCUATT against Tesk1: inactive: 0.481; for GGAGAUUUUCCAAAAUGUGTT against Proc: inactive: 0.209; for GCCCUGUUUAGAACCAUCATT against Gna14: inactive: 0.603.

On to CCUAGUCAUAUUCUACAGUTT against Iqca1l, for which the z-score is inactive: 0.77. To CGAAGUAAAUGUGAAUAGATT against Wdr77 belongs inactive: -0.534; to GGAGAUAGAGUUACCUUUGTT against Nbn, inactive: -1.48; to CCAAGUACUACAAUUUCCATT against Oasl2, inactive: 0.421. The same measure for “UAAUAUUGUCAGCUGGCUUTT against D830030K20Rik”: inactive: -0.261.

Regarding CCGGCAAUUGCCUCAUUAUTT against Olfr1145, the z-score is inactive: -1.51.

On to GGUCACUCUAUGAGGAUUUTT against Vhl, for which the z-score is inactive: -0.384.

On to GGCCGAAUGGGUCUCUACATT against Gabrr2, for which the z-score was inactive: 0.191.

Take GGAGCGAGGAAUCAAUGUUTT against Prss8: the z-score is active: 2.86. To GGUGGCUUCUGCUUAUUUCTT against Slc13a1 belongs inactive: 0.219; to CCCAGUCACAAUAUUUUCUTT against Ssbp1, inactive: -0.335. The same measure for GGUUUUGAGCAUUAAUGUGTT against Dhrs4: inactive: -0.109. Take GCCGACAUCUCCAAGAGAUTT against Cdk5rap3: the z-score is inactive: 1.67.

With CCACUCUCACCAGCUUUAUTT against Tm7sf2, the z-score is inactive: 0.756.

Take GGCUGAGAAACUGGAUGAATT against Rem1: the z-score is inactive: -0.143. The same measure for CGUAAAACGAGUGCUUUUATT against Grhl2: inactive: 0.641; for GGGCUUUCUUUGUGAUAUUTT against Zbtb24: inactive: 0.993. Consider GGAACCACUGCUAGCCAGATT against Serpinb6a, for which the z-score is inactive: 0.491.

For the sequence GCAGAGCAUCCCUAUCUCATT against Fam160a1, the z-score is inactive: -0.129. The same measure for GCACCUGAGCUUUCGAAUATT against Fam3a: inactive: -0.373; for GGGCUUAUGUUUCCAGACCTT against Prmt8: inactive: -0.463; for GGCGAACACUGUCAUGAAUTT against Spin4: active: 3.37. With GGAAAUAGGCAAGUUGUUGTT against Luc7l2, the z-score is inactive: -0.214. To GGGCAACUUGGAAUAAAGATT against Dsg3 belongs inactive: -1.77. To “GGAUGAGGUGGAAAAAAUGTT against 1700029H14Rik” belongs inactive: 0.946.

On to GGUGGAGGGAAUGAACAUCTT against Slc1a5, for which the z-score is inactive: -1.24. Consider GCUCCUAAAAAGGCUCUUUTT against H2ac18, for which the z-score was inactive: -0.463. To GGUAGCUAGUAUCCAAUAATT against Psen1 belongs inactive: 1.45; to GAUUCCUUUUUUGGAGGCGTT against Olfr45, inactive: 1.21. The same measure for GGUUCUUUUUGCCACAGCCTT against Miga2: active: -2.31.

Consider GGGAAUGGAUGUUAUGAGUTT against Oas1a, for which the z-score was inactive: -0.247. To GGGUAGUGGCAGAUUUGGATT against Sys1 belongs inactive: 0.927; to GCAAAACUUGGAACGAUUUTT against Ddx1, inactive: 0.153; to GGUUAGAAUUUGCUAGAAATT against Aldh1l2, inactive: 0.0502. To GGGACUCAGUGUUUAUUGATT against Thsd4 belongs inactive: 0.216; to GGUACUAAAGUGUGAUGUGTT against Nnmt, inactive: -0.191; to GCCAUUAAUCCUCUCAUCUTT against S1pr4, inactive: -0.193. With GGUUUCGGUGGAAGUCGUATT against Scaf1, the z-score is inactive: -1.95. The same measure for GCAGUGUUUAGAGAGUUAUTT against Ano7: inactive: 0.705; for GGAAAAGCAUCAAUUGAUGTT against Abca8b: inactive: -1.02.

With GGCCUUACAUCCUGUCUUUTT against Lime1, the z-score was inactive: 0.598.
